# Laboratory results published in the supplement of paper PMC9226226.
# Where “and” joins values, the source holds several entries; their conditions need not be identical. Equal entries are not always repeated. The list shows a part of the results. Some well-known active drugs show little effect in this data set, so a weak value is uncertain.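 Human mesenchymal stem cells lacking the Werner syndrome gene, which age prematurely, were used. Automated live-cell imaging tracked growth across three biological repeats; the twenty drugs raising growth most relative to vehicle advanced, without a stated fixed cutoff.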
# Tested on: Werner syndrome hMSCs (WRN-/-)
# Assay: relative cell density (fold change vs vehicle control); higher = more proliferation (geroprotective)
# Conditions: concentration (umol/L): 1, 6 days
SMILES,relative cell density (vehicle: DMSO),relative cell density (vehicle: Water)
Oc1c(I)cc(Cl)c2cccnc12,1.16,
C[C@@H](O)[C@H]1C(=O)N2C(C(=O)O)=C(S[C@@H]3CN[C@H](CNS(N)(=O)=O)C3)[C@H](C)[C@H]12,0.977,
COc1cc2nccc(Oc3ccc(NC(=O)Nc4cc(C)on4)c(Cl)c3)c2cc1OC,1.09,
CC(C)(C#N)c1cc(Cn2cncn2)cc(C(C)(C)C#N)c1,1.07,
C=CCNC(N)=S,1.17,
CN(C)CCOC(C)(c1ccccc1)c1ccccn1 (stereo unspecified),1.26,
Nc1ccn([C@H]2CC[C@@H](CO)O2)c(=O)n1,1.1,
Nc1nc2ccc(OC(F)(F)F)cc2s1,1.13,
CN1CCC(=C2c3ccccc3CCc3cccnc32)CC1,1.05,
COc1ccc2c(c1)c(CC(=O)O)c(C)n2C(=O)c1ccc(Cl)cc1,1.01,
CCC/N=C1\S/C(=C\c2ccc(OC[C@H](O)CO)c(Cl)c2)C(=O)N1c1ccccc1C,0.851,
CC(C)C[C@H](NC(=O)[C@@H](NC(=O)c1cccc(-c2ccccc2)n1)[C@@H](C)O)B(O)O,0.215,
O=C([O-])c1ccccc1.[Na+],1.05,
C[C@]1(O)C[C@@H](c2nc(-c3ccc4ccc(-c5ccccc5)nc4c3)c3c(N)nccn32)C1,0.611,
C[C@@H]1CCO[C@H]2Cn3cc(C(=O)NCc4ccc(F)cc4F)c(=O)c(O)c3C(=O)N12,1.12,
O=C(C1CCCCC1)N1CC(=O)N2CCc3ccccc3C2C1 (stereo unspecified),1.05,
C(=C\c1ccccc1)/CN1CCN(C(c2ccccc2)c2ccccc2)CC1,1.08,
CC(=O)NCCCS(=O)(=O)O,,1.07
O=C(O)c1cc(/N=N/c2ccc(O)c(C(=O)O)c2)ccc1O,1.02,
CC(C)(C)NCC(O)COc1cccc2c1CCC(=O)N2 (stereo unspecified),1.11,
CNC(=O)c1cc(Oc2ccc(NC(=O)Nc3ccc(Cl)c(C(F)(F)F)c3)c(F)c2)ccn1,0.917 and 1.18,
CN(C)C(=O)C(CCN1CCC(O)(c2ccc(Cl)cc2)CC1)(c1ccccc1)c1ccccc1,1.13,
Cc1ccccc1C(=O)Nc1ccc(C(=O)N2CCCC(O)c3cc(Cl)ccc32)c(C)c1 (stereo unspecified),1.05,

SMILES,relative cell density (vehicle: DMSO),relative cell density (vehicle: Water)
Nc1nc2[nH]cnc2c(=S)[nH]1,0.916,
CC(C(=O)O)c1ccc2c(c1)[nH]c1ccc(Cl)cc12 (stereo unspecified),0.876,
CO/N=C(\C(=O)N[C@@H]1C(=O)N2C(C(=O)O)=C(CSc3nnnn3C)CS[C@H]12)c1csc(N)n1,1.02,
C[C@H]1O[C@@H](O[C@H]2[C@@H](O)C[C@H](O[C@H]3[C@@H](O)C[C@H](O[C@H]4CC[C@@]5(C)[C@H](CC[C@@H]6[C@@H]5C[C@@H](O)[C@]5(C)[C@@H](C7=CC(=O)OC7)CC[C@]65O)C4)O[C@@H]3C)O[C@@H]2C)C[C@H](O)[C@@H]1O,0.192,
CC(C(=O)O)c1ccc(-c2ccccc2)c(F)c1 (stereo unspecified),1.08,
NC(=O)c1cn(Cc2c(F)cccc2F)nn1,0.841,
CC[C@H]1OC(=O)[C@H](C)[C@@H](O[C@H]2C[C@@](C)(OC)[C@@H](O)[C@H](C)O2)[C@H](C)[C@@H](O[C@@H]2O[C@H](C)C[C@H](N(C)C)[C@H]2O)[C@](C)(O)C[C@@H](C)C(=O)[C@H](C)[C@H]2OC(=O)O[C@@]21C,1.13,
Cc1c(OCC(F)(F)F)ccnc1C[S@@+]([O-])c1nc2ccccc2[nH]1,1.05,
C[C@H](CCC(=O)O)[C@H]1CC[C@H]2[C@@H]3[C@H](O)C[C@@H]4C[C@H](O)CC[C@]4(C)[C@H]3C[C@H](O)[C@]12C,0.998,
Cc1cccc(C)c1OCC(C)N (stereo unspecified),0.147,
CN1[C@@H]2CC[C@H]1C[C@@H](OC(=O)c1c[nH]c3ccccc13)C2,1.3,
Cc1cc(=O)[nH]c(=S)[nH]1,1.04,
CC[C@]1(O)C[C@H]2CN(CCc3c([nH]c4ccccc34)[C@@](C(=O)OC)(c3cc4c(cc3OC)N(C=O)[C@H]3[C@@](O)(C(=O)OC)[C@H](OC(C)=O)[C@]5(CC)C=CCN6CC[C@]43[C@@H]65)C2)C1,0.159,
Nc1nc(CC(=O)Nc2ccc(CCNC[C@H](O)c3ccccc3)cc2)cs1,1.04,
NC[C@@H]1O[C@H](O[C@H]2[C@@H](O)[C@H](O[C@@H]3[C@@H](O)[C@H](N)C[C@H](N)[C@H]3O[C@H]3O[C@H](CO)[C@@H](O)[C@H](O)[C@H]3N)O[C@@H]2CO)[C@H](N)[C@@H](O)[C@@H]1O,,0.814
COc1ccccc1OCC(O)CO (stereo unspecified),1.29,
Oc1c(Cl)cc(Cl)c(Cl)c1Cc1c(O)c(Cl)cc(Cl)c1Cl,0.655,
CCOc1cc2ncc(C#N)c(Nc3ccc(F)c(Cl)c3)c2cc1NC(=O)/C=C/CN(C)C,0.501,
Cc1cc(/C=C/C#N)cc(C)c1Nc1ccnc(Nc2ccc(C#N)cc2)n1,1.19,
Oc1ccc(/C=C/c2cc(O)cc(O)c2)cc1,1.12,
CCOC(=O)C1=C(COCCN)NC(C)=C(C(=O)OC)C1c1ccccc1Cl (stereo unspecified),1.1 and 1.06,
CN1CC(O)c2cc(N=NC(N)=O)c(O)cc21 (stereo unspecified),1.03,
COc1ccc(/C=C/C(=O)Nc2ccccc2C(=O)O)cc1OC,0.977,

SMILES,relative cell density (vehicle: DMSO),relative cell density (vehicle: Water)
CCN(CC)CCNC(=O)c1c(C)[nH]c(/C=C2\C(=O)Nc3ccc(F)cc32)c1C,1 and 1.35,
CC(=O)OCC(=O)[C@@]12OC(C)(C)O[C@@H]1C[C@H]1[C@@H]3C[C@H](F)C4=CC(=O)C=C[C@]4(C)[C@@]3(F)[C@@H](O)C[C@@]12C,1.17,
c1ccc2c(CC3=NCCN3)cccc2c1,1.21,
CC(=O)c1cc2c(o1)C(=O)c1ccccc1C2=O,0.343,
CCN(CC)CC(=O)Nc1c(C)cccc1C,1.29 and 1.05,
O=C1NS(=O)(=O)c2ccccc21,1.24,
CC(C)COc1ccc(CNC(=O)N(Cc2ccc(F)cc2)C2CCN(C)CC2)cc1,1.14,
O=c1oc2c(O)c(O)cc3c(=O)oc4c(O)c(O)cc1c4c23,,0.975
CNC(=O)c1cc(Oc2ccc(NC(=O)Nc3ccc(Cl)c(C(F)(F)F)c3)cc2)ccn1,1.21 and 1.09,
COc1cccc2c1C(=O)c1c(O)c3c(c(O)c1C2=O)C[C@@](O)(C(C)=O)C[C@@H]3O[C@H]1C[C@H](N)[C@H](O)[C@H](C)O1,0.109,
Cc1cn([C@H]2C=C[C@@H](CO)O2)c(=O)[nH]c1=O,1.02,
O=C([O-])C(O)C(O)C(O)C(O)C(=O)[O-].O=C([O-])C(O)C(O)C(O)C(O)C(=O)[O-].O=C([O-])C(O)C(O)C(O)C(O)C(=O)[O-].[Fe+3].[Fe+3] (stereo unspecified),1.12,
CN1C(CCl)Nc2cc(Cl)c(S(N)(=O)=O)cc2S1(=O)=O (stereo unspecified),1.05,
CO/N=C(\C(=O)N[C@@H]1C(=O)N2C(C(=O)[O-])=C(C[n+]3cccc4c3CCC4)CS[C@H]12)c1csc(N)n1,1.08,
CC(O)Cn1cnc2c1c(=O)n(C)c(=O)n2C (stereo unspecified),1.25,
CS(=O)(=O)OCCCCOS(C)(=O)=O,1.05,
CC[C@@H]1C(=O)OC[C@@H]1Cc1cncn1C,1.16,
O=c1c(-n2ccnn2)c[nH]n1-c1cc(N2CCOCC2)ncn1,,1.2
COc1cc2nccc(Oc3ccc(NC(=O)NC4CC4)c(Cl)c3)c2cc1C(N)=O,1.04,
C[C@@H](O[C@H]1OCCN(Cc2nn(P(=O)(O)O)c(=O)[nH]2)[C@H]1c1ccc(F)cc1)c1cc(C(F)(F)F)cc(C(F)(F)F)c1,1.07,
CCC(C)(Oc1ccc(C2(c3ccc(OC(C)(CC)C(=O)O)cc3)CCCCC2)cc1)C(=O)O (stereo unspecified),0.785,
O=C(CCCN1CCN(c2ccccn2)CC1)c1ccc(F)cc1,1.13,
C[C@H](CCC(=O)O)[C@H]1CC[C@H]2[C@@H]3[C@@H](O)C[C@@H]4C[C@H](O)CC[C@]4(C)[C@H]3CC[C@]12C,1.05,

# Individual results from above.
# Value for C[C@]1(O)C[C@@H](c2nc(-c3ccc4ccc(-c5ccccc5)nc4c3)c3c(N)nccn32)C1 under relative cell density (vehicle: DMSO): 0.611
# Value for O=C(C1CCCCC1)N1CC(=O)N2CCc3ccccc3C2C1 (stereo unspecified) under relative cell density (vehicle: DMSO): 1.05
# Value for CC[C@]1(O)C[C@H]2CN(CCc3c([nH]c4ccccc34)[C@@](C(=O)OC)(c3cc4c(cc3OC)N(C=O)[C@H]3[C@@](O)(C(=O)OC)[C@H](OC(C)=O)[C@]5(CC)C=CCN6CC[C@]43[C@@H]65)C2)C1 under relative cell density (vehicle: DMSO): 0.159
# Value for Cc1cc(/C=C/C#N)cc(C)c1Nc1ccnc(Nc2ccc(C#N)cc2)n1 under relative cell density (vehicle: DMSO): 1.19
# Value for Oc1ccc(/C=C/c2cc(O)cc(O)c2)cc1 under relative cell density (vehicle: DMSO): 1.12
# Value for Nc1nc2ccc(OC(F)(F)F)cc2s1 under relative cell density (vehicle: DMSO): 1.13

# Additional structures

SMILES,relative cell density (vehicle: DMSO),relative cell density (vehicle: Water)
COC(=O)C1=C(C#N)NC(C)=C(C(=O)OC(C)C)C1c1cccc([N+](=O)[O-])c1 (stereo unspecified),1.08,
COCCCN1CCC(NC(=O)c2cc(Cl)c(N)c3c2OCC3)CC1,1 and 1.41,
N[C@@H](Cc1cc(I)c(Oc2ccc(O)c(I)c2)c(I)c1)C(=O)O,1.01,
Cc1ccc(=O)n(-c2ccccc2)c1,1.08,
Cc1c(-c2cnccn2)ssc1=S,0.993,
CC(C)(CO)C(O)C(=O)NCCC(=O)O (stereo unspecified),1.44,
CC(C)OC(=O)OCOP(=O)(CO[C@H](C)Cn1cnc2c(N)ncnc21)OCOC(=O)OC(C)C,1,
C[N+](C)(C)CC(=O)O,0.975,
OCCN(CCO)c1nc(N2CCCCC2)c2nc(N(CCO)CCO)nc(N3CCCCC3)c2n1,1.07,
CN1CCN(C(c2ccccc2)c2ccccc2)CC1,0.743,
COC(=O)[C@@H]1CC2=CC(=O)CC[C@]2(C)[C@@]23O[C@@H]2C[C@@]2(C)[C@@H](CC[C@@]24CCC(=O)O4)[C@H]13,,0.667
Cc1ccc(F)c(NC(=O)Nc2ccc(-c3cccc4[nH]nc(N)c34)cc2)c1,1.43,
C[C@]12CC[C@@H]3c4ccc(OC(=O)c5ccccc5)cc4CC[C@H]3[C@@H]1CC[C@@H]2O,1.09,
O=c1oc2cc(O)ccc2s1,1.16,
O=C(O)c1ccccc1O,1.26,
CCOC(=O)[C@H](CCc1ccccc1)N[C@@H](C)C(=O)N1C(=O)N(C)C[C@H]1C(=O)O,1.34,
C[C@@H]1C[C@H]2[C@@H]3CCC4=CC(=O)C=C[C@]4(C)[C@@]3(Cl)[C@@H](O)C[C@]2(C)[C@@]1(OC(=O)c1ccco1)C(=O)CCl,1.15,
C[C@]12CCC3=C4CCC(=O)C=C4CC[C@H]3[C@@H]1CC[C@@]2(O)CC#N,0.83,
O=C(O)c1cc(/N=N/c2ccc(S(=O)(=O)Nc3ccccn3)cc2)ccc1O,0.965,
C=C1c2cccc(O)c2C(O)=C2C(=O)[C@]3(O)C(O)=C(C(N)=O)C(=O)[C@@H](N(C)C)[C@@H]3[C@@H](O)[C@H]12,,1.13
CC(C)N(CCCCOCC(=O)NS(C)(=O)=O)c1cnc(-c2ccccc2)c(-c2ccccc2)n1,0.818,
C#C[C@]1(O)CC[C@H]2[C@@H]3CCC4=CC(=O)CC[C@@H]4[C@H]3C(=C)C[C@@]21CC,1.34,
